The record followed here is publication PMC7819943, “Rice protein-binding microarrays: a tool to detect cis-acting elements near promoter regions in rice”.

Some of the results follow.

The experiment has as its target T1, OsSMF1 (Oryza sativa, UniProt Q6ZLB0 1-436).
T1 sequence: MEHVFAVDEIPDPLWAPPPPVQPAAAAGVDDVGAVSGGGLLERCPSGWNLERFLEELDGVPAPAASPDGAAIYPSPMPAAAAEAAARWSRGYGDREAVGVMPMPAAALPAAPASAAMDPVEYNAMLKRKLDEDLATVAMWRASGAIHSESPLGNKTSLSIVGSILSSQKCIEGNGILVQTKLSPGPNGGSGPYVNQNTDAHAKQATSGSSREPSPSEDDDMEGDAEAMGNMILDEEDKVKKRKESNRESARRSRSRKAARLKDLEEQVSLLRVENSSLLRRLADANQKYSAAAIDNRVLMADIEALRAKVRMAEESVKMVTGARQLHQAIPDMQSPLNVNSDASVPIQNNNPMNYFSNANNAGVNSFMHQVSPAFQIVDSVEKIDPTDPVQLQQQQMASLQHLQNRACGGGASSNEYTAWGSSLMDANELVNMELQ
Description: protein-binding microarray (RPBM); PBS, 2% BSA, 51.3 ng/ul salmon testes DNA, 50 uM zinc acetate, 200 nM TF, 25 C, 1 h; high values mean tight binding. As to conditions: protein: recombinant; tags: N-terminal polyhistidine and DsRed monomer fusion (pET32a); chain copies: 2; label: CyDye5-dUTP incorporated in the synthesized complementary strand; 3' TTTTT single-stranded linker to array surface; dsDNA, one strand shown. In outline:
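Polyhistidine-tagged DsRed fusions of transcription factors, joined at the N-terminus, were expressed in E. coli BL21-CodonPlus and isolated on Ni–NTA. They were incubated at 200 nM for 1 h at 25 °C on a custom Agilent array, double-stranded and BSA-blocked, in PBS with 2% BSA, salmon testes DNA and 50 µM zinc acetate. The binding signal is per-feature fluorescence intensity (arbitrary units) read on an Axon 4000B scanner after washing.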
As for “ATTTATTGAGGTATTGAATGAGGATTCTAGGAGGAACTAGCGGAGTCACCTAGTGCAG”, the binding signal is 22700 fluorescence intensity (a.u.).
The value for “CCATGGCGGTGACGCTGCTGCTCCGGCGGTCAAAGGCTCTCGGAGTCACCTAGTGCAG” was 21100 fluorescence intensity (a.u.); that for “AAACAGTAGCTTCCTACTCAGATTAATCAGGAGAAGCATTCGGAGTCACCTAGTGCAG” was 3170 fluorescence intensity (a.u.); that for “CGTGAAATAGCGCATTTAAAATTTGAGTTACGACATGTTCCGGAGTCACCTAGTGCAG” was 17200 fluorescence intensity (a.u.).
For the sequence “AGTTATGGACCATCCGGAATCTGACGAGGAGTTCGTCCAGCGGAGTCACCTAGTGCAG”, the binding signal is 4860 fluorescence intensity (a.u.).
Under “CGAGGAGGAGGCGTAGCAGCCGCCGCGTTGGCAAGCGCCACGGAGTCACCTAGTGCAG” stands 4060 fluorescence intensity (a.u.).
Under “ATATTAGTGGCCAGGTCATTTGCATCGACGGTGGCCACACCGGAGTCACCTAGTGCAG” stands 4470 fluorescence intensity (a.u.); under “GCAATCCTTGCACGCGGCGGCGCACTTCTTCACCTTGTCGCGGAGTCACCTAGTGCAG”, 4080 fluorescence intensity (a.u.); under “GGGCAGCTTCTCGCTGCGGCAGCCGCCGGTGGTGGACATCCGGAGTCACCTAGTGCAG”, 3800 fluorescence intensity (a.u.).
The value for “CACGGTTCACCATCCACGCGCATGACTCGTTCCACGAGCCCGGAGTCACCTAGTGCAG” was 5130 fluorescence intensity (a.u.); that for “GGGGACAATAGAGATGACGCCAATTCATTGATGCCATGAACGGAGTCACCTAGTGCAG” was 3250 fluorescence intensity (a.u.); that for “GCGCGAGAATAACGTGGGCGTGACGACGTGGACGGGTCTCCGGAGTCACCTAGTGCAG” was 9490 fluorescence intensity (a.u.).
“ACCTCCCCGACGGCGTCCGCGTGCCGCGCTCCACGCGCACCGGAGTCACCTAGTGCAG”: the binding signal is 3460 fluorescence intensity (a.u.).
The value for “AGACGTGTCAGCAAAAGTTCGCTTGTTTATCACCTGACGACGGAGTCACCTAGTGCAG” was 3780 fluorescence intensity (a.u.); that for “GTATACTGTACTCTAACATACGTGTGTACAAACATGTCAGCGGAGTCACCTAGTGCAG” was 4460 fluorescence intensity (a.u.); that for “ATTCGGACTGAAAATAAAAGTAGTTTCAGGTCACTCACATCGGAGTCACCTAGTGCAG” was 7120 fluorescence intensity (a.u.).
Turning to “GGACGCATAATCTCGTCGGTGTGCGTCAGTCATTCCAGTGCGGAGTCACCTAGTGCAG”, the binding signal was 4470 fluorescence intensity (a.u.).
“ATCCACAAAAGATCCCCACACCTGATCACACCCAGTTTAACGGAGTCACCTAGTGCAG”: the binding signal was 3180 fluorescence intensity (a.u.).
In the case of “TATATGTTCGTTGCAGCTTACTCATAATAATCCAGATTATCGGAGTCACCTAGTGCAG”, the binding signal is 3440 fluorescence intensity (a.u.).
Under “TCAGCGATGACGAACAACAAGCGGGTTGACGGCTGTATCGCGGAGTCACCTAGTGCAG” stands 29400 fluorescence intensity (a.u.).
Under “TGGAGGAAGTCAGTAGGATCCCACGTGTCATACTCACACCCGGAGTCACCTAGTGCAG” stands 22200 fluorescence intensity (a.u.); under “AGAATGGTGGGGCCACGAGGGCCCCACATGTCATTCTCACCGGAGTCACCTAGTGCAG”, 4640 fluorescence intensity (a.u.); under “AATCTGCAATGCAGCACACGCTGACACGCATGTCTCTGTCCGGAGTCACCTAGTGCAG”, 4360 fluorescence intensity (a.u.).
The value for “CTTCTTCTTCTGACGTCGCCTCCTTTATTCCTCCGCGTTCCGGAGTCACCTAGTGCAG” was 4110 fluorescence intensity (a.u.); that for “CGAGCCCATACGTGACAGGCCTTACATGTGTGGGCCGTGCCGGAGTCACCTAGTGCAG” was 3700 fluorescence intensity (a.u.).
Turning to “GGTGGCTTACAAGAAACGATGGGATCGATATATTCCTTCGCGGAGTCACCTAGTGCAG”, the binding signal is 3580 fluorescence intensity (a.u.).
The value for “GCGATGTGCACATGGATTTTAGTGGTAGGTAATGTACCCGCGGAGTCACCTAGTGCAG” was 3300 fluorescence intensity (a.u.).
“CTCATATGCTTTCCCTTTCTCAGCTCCAGCTCATTCGCTACGGAGTCACCTAGTGCAG”: the binding signal was 5300 fluorescence intensity (a.u.).
Turning to “CGCTGACGCGACGCGCTCTCCTCCGGCGAGGTCTCTGACTCGGAGTCACCTAGTGCAG”, the binding signal is 4080 fluorescence intensity (a.u.).
On to “CCACCACGCTTTCCCCGCGCGATGACTCCGCCGCCGCGCCCGGAGTCACCTAGTGCAG”, for which the binding signal was 5400 fluorescence intensity (a.u.).
“ATAATCCATATTGTTTATTCATCAGCTTGATCACACATACCGGAGTCACCTAGTGCAG”: the binding signal is 18800 fluorescence intensity (a.u.).
The value for “GCGCGGCCAACGTGCGGAACGGCAGTGACGCACGCGGGGACGGAGTCACCTAGTGCAG” was 3620 fluorescence intensity (a.u.).
The value for “CAAATGAACAATCTGATCGAGATGACGACATCTGATCTAGCGGAGTCACCTAGTGCAG” was 4690 fluorescence intensity (a.u.).
The value for “GTCACAGCCTGACCCCTGATAAGTTAAAGTGCAATAGTCCCGGAGTCACCTAGTGCAG” was 3940 fluorescence intensity (a.u.); that for “TGACTGGTGAGACCTATACTGACGTGGTGTCCAAAACCAGCGGAGTCACCTAGTGCAG” was 5160 fluorescence intensity (a.u.); that for “ACATGATTATATGATGCACTATTGTGACACAATGATGAGTCGGAGTCACCTAGTGCAG” was 4620 fluorescence intensity (a.u.).
“TATATTGTAATGGAGAACATAACACGTATTAATTAATTAGCGGAGTCACCTAGTGCAG”: the binding signal was 3720 fluorescence intensity (a.u.).
Under “ATGGTGTTGATTTGTAGTATTCAATAAATCGTACTCCCTTCGGAGTCACCTAGTGCAG” stands 5490 fluorescence intensity (a.u.); under “GACGGTGAGGCCATATATCTTTCCGGTGACCACATCAGCTCGGAGTCACCTAGTGCAG”, 4720 fluorescence intensity (a.u.); under “TCTACCGTCACGTGGACTGCTGCGTGGCGAGTGGAGGCCGCGGAGTCACCTAGTGCAG”, 4220 fluorescence intensity (a.u.).
As for “AACAATAGCCTCGGTCGAGGTGAGGTGGAAGAAGCAAAGCCGGAGTCACCTAGTGCAG”, the binding signal was 4430 fluorescence intensity (a.u.).
For “GAGTCAGCTTGTCAACCAGGTCAACAATGCCACGTCGGAACGGAGTCACCTAGTGCAG”, the binding signal was 16400 fluorescence intensity (a.u.).
